{
  "source": "patent US11300640B2",
  "about": "“Protein reporters for ultrasensitive detection methods” (The Trustees of the University of Pennsylvania, priority 2017, dated 2022)",
  "experiment": "129Xe hyper-CEST NMR of purified MBP and MBP mutants",
  "conditions": "PBS",
  "note": "Where “and” joins values, the source holds several entries; their conditions need not be identical. Equal entries are not always repeated.",
  "data": [
    {"substance": "maltose binding protein [MBP]", "values": [
      {"measurement": "Xe(aq) peak width (FWHM)", "setting": "80 μM MBP, 1 mM βCD", "value": "60 ppm and 60 ± 2 ppm"},
      {"measurement": "Xe(aq) peak width (FWHM)", "setting": "80 μM protein, 1 mM maltose", "value": "47 ppm and 47 ± 2 ppm"},
      {"measurement": "Xe@MBP peak width (FWHM)", "setting": "80 μM protein, 1 mM maltose", "value": "35 ppm and 35 ± 2 ppm"},
      {"measurement": "Xe(aq) peak width (FWHM)", "setting": "80 μM protein, 1 mM maltose, listed as WT MBP", "value": 47, "unit": "ppm"},
      {"measurement": "Xe(aq) peak width (FWHM)", "setting": "80 μM protein, no maltose", "value": "42 ± 2", "unit": "ppm"},
      {"measurement": "Xe(aq) peak width (FWHM)", "setting": "80 μM protein, no maltose, listed as WT MBP", "value": 41.8, "unit": "ppm"}
    ]}
  ]
}
